Laboratory results taken from paper doi:10.1101/2025.02.27.640555.
These are yes or no findings as the source states them, for the method shown. Binding seen in cells or lysates may run through a third protein. These calls come from enrichment with a bait or labelling near it, and not all partners need be listed.

Target: HA-tagged SARS-CoV-2 nsp3 (pK1E-HA-SARS-CoV-2-nsp3) (SARS-CoV-2) (UniProt P0DTD1)
Experiment: affinity purification with mass spectrometry

Substance | binding
cleavage and polyadenylation specificity factor subunit 6 (CPSF6), endogenous in HEK293T (from UniProt Q16630 1-551) | binds
nucleoside diphosphokinase 1 (NME1) (from UniProt P15531 1-152) | binds
DEAD-box RNA helicase 5 (DDX5), endogenous in HEK293T (from UniProt P17844 1-614) | binds
nucleoside diphosphokinase 2 (NME2) (from UniProt P22392 1-152) | binds
GAPDH (from UniProt P04406 1-335) | binds
SRSF1 (from UniProt Q07955 1-248) | binds
Serrate RNA effector molecule homolog (SRRT), endogenous in HEK293T (from UniProt Q9BXP5 1-876) | binds
eukaryotic initiation factor 4A3 (eIF4A3), endogenous in HEK293T (from UniProt P38919 1-411) | binds
DExD-box helicase 39B (DDX39B), endogenous in HEK293T (from UniProt Q13838 1-428) | binds
UBA1, endogenous in HEK293T (from UniProt P22314 1-1058) | binds
